# Reference: the supplement of paper PMC11438910
# Some of the results follow. Most of these values are background signal.
# B1: 4-99.1 (protein)
# chain 1: QVQLQESGPGLVKPSETLSLTCAVSGDSISSGYFWGWIRQPPGKGLEYIGYISGESGNTYDNPSLKSRVTISKDTSKNQFSLNLRSVTAADTAVYYCARRTVYIGFDYWGQGVLVTVSS
# chain 2: QAAPTQPPSVSGSPGQSVTISCTGTSSDIGYYNAVSWYQQHPGKAPKLMIYEVSKRPSGVSDRFSGSKSGTTASLTISGLQAEDEADYYCSSYAGTNTYIFGAGTRLTVL
# Experiments:
# Assay in all cases: fluorescence intensity of antibody binding to polysaccharide-coupled beads; higher = stronger binding
# [1] = biological target: pneumococcal polysaccharide Pn22A
# [2] = biological target: pneumococcal polysaccharide Pn22F
# [3] = biological target: pneumococcal polysaccharide Pn23A
# [4] = biological target: pneumococcal polysaccharide Pn23B
# [5] = biological target: pneumococcal polysaccharide Pn23F
# [6] = biological target: pneumococcal polysaccharide Pn24A
# [7] = biological target: pneumococcal polysaccharide Pn24B
# [8] = biological target: pneumococcal polysaccharide Pn24F
# [9] = biological target: pneumococcal polysaccharide Pn25A
# [10] = biological target: pneumococcal polysaccharide Pn25F
# [11] = biological target: pneumococcal polysaccharide Pn27
# [12] = biological target: pneumococcal polysaccharide Pn28A
# [13] = biological target: pneumococcal polysaccharide Pn28F
# [14] = biological target: pneumococcal polysaccharide Pn29
# [15] = biological target: pneumococcal polysaccharide Pn3
# [16] = biological target: pneumococcal polysaccharide Pn31
# [17] = biological target: pneumococcal polysaccharide Pn32A
# [18] = biological target: pneumococcal polysaccharide Pn32F
# [19] = biological target: pneumococcal polysaccharide Pn33A
# [20] = biological target: pneumococcal polysaccharide Pn33B
# [21] = biological target: pneumococcal polysaccharide Pn33C
# [22] = biological target: pneumococcal polysaccharide Pn33D
# [23] = biological target: pneumococcal polysaccharide Pn33F
# [24] = antibody concentration 81.7561 ng/mL
# [25] = antibody concentration 437.17 ng/mL
# [26] = antibody concentration 2337.65 ng/mL
# [27] = antibody concentration 12500 ng/mL
# [28] = antibody concentration 0.1 ng/mL
# [29] = antibody concentration 0.534724 ng/mL
# [30] = antibody concentration 2.8593 ng/mL
# [31] = antibody concentration 15.2894 ng/mL
binder,measurement,setting,value
B1,fluorescence intensity,[1]; [24],21.5 MFI
same,fluorescence intensity,[1]; [25],22 MFI
same,fluorescence intensity,[1]; [26],28.5 MFI
same,fluorescence intensity,[1]; [27],93 MFI
same,fluorescence intensity,[2]; [28],29.2 MFI
same,fluorescence intensity,[2]; [29],30.8 MFI
same,fluorescence intensity,[2]; [30],29.8 MFI
same,fluorescence intensity,[2]; [31],32 MFI
same,fluorescence intensity,[2]; [24],33 MFI
same,fluorescence intensity,[2]; [25],30.2 MFI
same,fluorescence intensity,[2]; [26],32.2 MFI
same,fluorescence intensity,[2]; [27],52.8 MFI
same,fluorescence intensity,[3]; [28],25 MFI
same,fluorescence intensity,[3]; [29],26 MFI
same,fluorescence intensity,[3]; [30],25.8 MFI
same,fluorescence intensity,[3]; [31],25.2 MFI
same,fluorescence intensity,[3]; [24],24 MFI
same,fluorescence intensity,[3]; [25],31.8 MFI
same,fluorescence intensity,[3]; [26],44.5 MFI
same,fluorescence intensity,[3]; [27],65.2 MFI
same,fluorescence intensity,[4]; [28],32 MFI
same,fluorescence intensity,[4]; [29],31 MFI
same,fluorescence intensity,[4]; [30],31.5 MFI
same,fluorescence intensity,[4]; [31],31 MFI
same,fluorescence intensity,[4]; [24],28.2 MFI
same,fluorescence intensity,[4]; [25],31.5 MFI
same,fluorescence intensity,[4]; [26],34 MFI
same,fluorescence intensity,[4]; [27],42 MFI
same,fluorescence intensity,[5]; [28],19.5 MFI
same,fluorescence intensity,[5]; [29],17.2 MFI
same,fluorescence intensity,[5]; [30],17 MFI
same,fluorescence intensity,[5]; [31],18.5 MFI
same,fluorescence intensity,[5]; [24],19 MFI
same,fluorescence intensity,[5]; [25],20.5 MFI
same,fluorescence intensity,[5]; [26],20.8 MFI
same,fluorescence intensity,[5]; [27],32 MFI
same,fluorescence intensity,[6]; [28],15.5 MFI
same,fluorescence intensity,[6]; [29],15.5 MFI
same,fluorescence intensity,[6]; [30],15.5 MFI
same,fluorescence intensity,[6]; [31],15 MFI
same,fluorescence intensity,[6]; [24],15.5 MFI
same,fluorescence intensity,[6]; [25],16.8 MFI
same,fluorescence intensity,[6]; [26],18 MFI
same,fluorescence intensity,[6]; [27],30.5 MFI
same,fluorescence intensity,[7]; [28],17.2 MFI
same,fluorescence intensity,[7]; [29],19.5 MFI
same,fluorescence intensity,[7]; [30],18 MFI
same,fluorescence intensity,[7]; [31],17.5 MFI
same,fluorescence intensity,[7]; [24],19 MFI
same,fluorescence intensity,[7]; [25],20 MFI
same,fluorescence intensity,[7]; [26],25 MFI
same,fluorescence intensity,[7]; [27],60 MFI
same,fluorescence intensity,[8]; [28],17.8 MFI
same,fluorescence intensity,[8]; [29],19 MFI
same,fluorescence intensity,[8]; [30],20.8 MFI
same,fluorescence intensity,[8]; [31],18.5 MFI
same,fluorescence intensity,[8]; [24],18.2 MFI
same,fluorescence intensity,[8]; [25],22 MFI
same,fluorescence intensity,[8]; [26],26 MFI
same,fluorescence intensity,[8]; [27],45 MFI
same,fluorescence intensity,[9]; [28],23.8 MFI
same,fluorescence intensity,[9]; [29],26.5 MFI
same,fluorescence intensity,[9]; [30],24.5 MFI
same,fluorescence intensity,[9]; [31],23.5 MFI
same,fluorescence intensity,[9]; [24],25.5 MFI
same,fluorescence intensity,[9]; [25],27.5 MFI
same,fluorescence intensity,[9]; [26],29 MFI
same,fluorescence intensity,[9]; [27],34.5 MFI
same,fluorescence intensity,[10]; [28],32 MFI
same,fluorescence intensity,[10]; [29],30.5 MFI
same,fluorescence intensity,[10]; [30],32 MFI
same,fluorescence intensity,[10]; [31],30.5 MFI
same,fluorescence intensity,[10]; [24],31 MFI
same,fluorescence intensity,[10]; [25],32.5 MFI
same,fluorescence intensity,[10]; [26],35.5 MFI
same,fluorescence intensity,[10]; [27],50.8 MFI
same,fluorescence intensity,[11]; [28],16 MFI
same,fluorescence intensity,[11]; [29],19 MFI
same,fluorescence intensity,[11]; [30],17 MFI
same,fluorescence intensity,[11]; [31],18 MFI
same,fluorescence intensity,[11]; [24],16 MFI
same,fluorescence intensity,[11]; [25],20 MFI
same,fluorescence intensity,[11]; [26],38.8 MFI
same,fluorescence intensity,[11]; [27],274 MFI
same,fluorescence intensity,[12]; [28],28 MFI
same,fluorescence intensity,[12]; [29],27.5 MFI
same,fluorescence intensity,[12]; [30],27 MFI
same,fluorescence intensity,[12]; [31],28 MFI
same,fluorescence intensity,[12]; [24],26.2 MFI
same,fluorescence intensity,[12]; [25],27.5 MFI
same,fluorescence intensity,[12]; [26],29 MFI
same,fluorescence intensity,[12]; [27],39.5 MFI
same,fluorescence intensity,[13]; [28],29.2 MFI
same,fluorescence intensity,[13]; [29],29.5 MFI
same,fluorescence intensity,[13]; [30],29 MFI
same,fluorescence intensity,[13]; [31],29.8 MFI
same,fluorescence intensity,[13]; [24],30 MFI
same,fluorescence intensity,[13]; [25],31 MFI
same,fluorescence intensity,[13]; [26],35 MFI
same,fluorescence intensity,[13]; [27],124 MFI
same,fluorescence intensity,[14]; [28],15 MFI
same,fluorescence intensity,[14]; [29],16.2 MFI
same,fluorescence intensity,[14]; [30],17.5 MFI
same,fluorescence intensity,[14]; [31],17 MFI
same,fluorescence intensity,[14]; [24],16.5 MFI
same,fluorescence intensity,[14]; [25],17.5 MFI
same,fluorescence intensity,[14]; [26],28.8 MFI
same,fluorescence intensity,[14]; [27],168 MFI
same,fluorescence intensity,[15]; [28],16.8 MFI
same,fluorescence intensity,[15]; [29],34 MFI
same,fluorescence intensity,[15]; [30],118 MFI
same,fluorescence intensity,[15]; [31],280 MFI
same,fluorescence intensity,[15]; [24],510 MFI
same,fluorescence intensity,[15]; [25],2060 MFI
same,fluorescence intensity,[15]; [26],15500 MFI
same,fluorescence intensity,[15]; [27],10100 MFI
same,fluorescence intensity,[16]; [28],15 MFI
same,fluorescence intensity,[16]; [29],13 MFI
same,fluorescence intensity,[16]; [30],14.8 MFI
same,fluorescence intensity,[16]; [31],14.5 MFI
same,fluorescence intensity,[16]; [24],14.5 MFI
same,fluorescence intensity,[16]; [25],15 MFI
same,fluorescence intensity,[16]; [26],23.2 MFI
same,fluorescence intensity,[16]; [27],215 MFI
same,fluorescence intensity,[17]; [28],18.5 MFI
same,fluorescence intensity,[17]; [29],15.8 MFI
same,fluorescence intensity,[17]; [30],19.2 MFI
same,fluorescence intensity,[17]; [31],17.5 MFI
same,fluorescence intensity,[17]; [24],17.5 MFI
same,fluorescence intensity,[17]; [25],20 MFI
same,fluorescence intensity,[17]; [26],23.5 MFI
same,fluorescence intensity,[17]; [27],58 MFI
same,fluorescence intensity,[18]; [28],28.5 MFI
same,fluorescence intensity,[18]; [29],27.5 MFI
same,fluorescence intensity,[18]; [30],28.5 MFI
same,fluorescence intensity,[18]; [31],28.8 MFI
same,fluorescence intensity,[18]; [24],28.5 MFI
same,fluorescence intensity,[18]; [25],32.5 MFI
same,fluorescence intensity,[18]; [26],45 MFI
same,fluorescence intensity,[18]; [27],52 MFI
same,fluorescence intensity,[19]; [28],19 MFI
same,fluorescence intensity,[19]; [29],18.5 MFI
same,fluorescence intensity,[19]; [30],17.5 MFI
same,fluorescence intensity,[19]; [31],17.5 MFI
same,fluorescence intensity,[19]; [24],19 MFI
same,fluorescence intensity,[19]; [25],24 MFI
same,fluorescence intensity,[19]; [26],80.2 MFI
same,fluorescence intensity,[19]; [27],692 MFI
same,fluorescence intensity,[20]; [28],18.5 MFI
same,fluorescence intensity,[20]; [29],17.5 MFI
same,fluorescence intensity,[20]; [30],18 MFI
same,fluorescence intensity,[20]; [31],18 MFI
same,fluorescence intensity,[20]; [24],17.5 MFI
same,fluorescence intensity,[20]; [25],17.5 MFI
same,fluorescence intensity,[20]; [26],19.5 MFI
same,fluorescence intensity,[20]; [27],27 MFI
same,fluorescence intensity,[21]; [28],19.5 MFI
same,fluorescence intensity,[21]; [29],20 MFI
same,fluorescence intensity,[21]; [30],18.2 MFI
same,fluorescence intensity,[21]; [31],19 MFI
same,fluorescence intensity,[21]; [24],20 MFI
same,fluorescence intensity,[21]; [25],21 MFI
same,fluorescence intensity,[21]; [26],24 MFI
same,fluorescence intensity,[21]; [27],75.5 MFI
same,fluorescence intensity,[22]; [28],17 MFI
same,fluorescence intensity,[22]; [29],16.5 MFI
same,fluorescence intensity,[22]; [30],17.2 MFI
same,fluorescence intensity,[22]; [31],16.5 MFI
same,fluorescence intensity,[22]; [24],16 MFI
same,fluorescence intensity,[22]; [25],15.5 MFI
same,fluorescence intensity,[22]; [26],18 MFI
same,fluorescence intensity,[22]; [27],32.8 MFI
same,fluorescence intensity,[23]; [28],12.8 MFI
same,fluorescence intensity,[23]; [29],13.5 MFI
same,fluorescence intensity,[23]; [30],13.5 MFI
same,fluorescence intensity,[23]; [31],13.5 MFI
same,fluorescence intensity,[23]; [24],14 MFI
same,fluorescence intensity,[23]; [25],16.5 MFI
same,fluorescence intensity,[23]; [26],42.5 MFI
same,fluorescence intensity,[23]; [27],425 MFI

# Rewritten with tabs: entries from further up
binder	measurement	setting	value
B1	fluorescence intensity	[4]; [31]	31 MFI
same	fluorescence intensity	[4]; [24]	28.2 MFI
same	fluorescence intensity	[4]; [25]	31.5 MFI
same	fluorescence intensity	[4]; [26]	34 MFI
same	fluorescence intensity	[4]; [27]	42 MFI
same	fluorescence intensity	[5]; [28]	19.5 MFI
same	fluorescence intensity	[5]; [29]	17.2 MFI

# Some of the entries above, reformatted:
binder	measurement	setting	value
B1	fluorescence intensity	[4]; [26]	34 MFI
same	fluorescence intensity	[6]; [28]	15.5 MFI
same	fluorescence intensity	[7]; [29]	19.5 MFI
same	fluorescence intensity	[18]; [24]	28.5 MFI
same	fluorescence intensity	[18]; [25]	32.5 MFI
